The whole screen tested about 400,000 compounds, of which about 13,000 (3.2%) were called active. The shares of active, inactive and inconclusive entries below differ from those in the screen. The call rests on the fitted dose curve; in most records, active means well fitted cell-killing curve with a large enough effect; inconclusive means small, poorly fitted or top-dose-only effect, or effect the other way; inactive means flat fitted curve, though single readings scatter. Potencies beside an inconclusive call are fits to weak or partial responses and may not hold up.
Assay: qHTS assay for MDR1-selective chemotherapeutics: Primary screen using the drug-selected MDR subline cells KB-V1; further: nearly all actives have a fitted effect of over 60% in size
Settings: KB-V1 MDR cells viability, CellTiter-Glo, 72 h; activity change, negative = cytotoxicity: at 46.1 µM (top of the series)
Method in brief: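 KB-V1 cells (P-gp-expressing MDR subline of KB-3-1) in phenol-red-free DMEM with 10% FBS were exposed to library compounds over a concentration series for 72 h at 37 degrees C. Viability read by CellTiter-Glo luminescence; concentration-effect curves fitted after normalization.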
On the % scale 0 is the no-effect control and ±100 the full control effect; potency means the concentration at half of the fitted maximal effect.

| Structure (SMILES) | activity change, negative = cytotoxicity | Potency |
| --- | --- | --- |
| COc1cc(Nc2ccn3nccc3n2)cc(OC)c1OC | inactive: -2.81% |  |
| O=C1COc2ccc(-c3csc(-c4ccc(Cl)cc4)n3)cc2N1 |  | inconclusive: 29.1 µM [cytotoxic, single point] |
| O=C1CC(C2CCCO2)C(=O)N1c1ccc(Cl)c(Cl)c1 (centres undefined) |  | inconclusive: 18.4 µM [rising, single point] |
| COc1ccc(CN2C(=O)CSCC2(C)C(=O)NCc2ccccc2)cc1 (centres undefined) | inactive: -30.6% |  |
| O=C(NN=Cc1ccc2c(c1)CCC2)c1cccc([N+](=O)[O-])c1 | inactive: -13% |  |
| COc1cc(OC)c2c(-c3cccc(-c4ccc(F)c(Cl)c4)c3)cc(=O)oc2c1 |  | inconclusive: 18.4 µM [cytotoxic, single point] |
| C=CCC[C@@H](Cc1ccc(F)cc1)C(=O)OC[C@H](Cc1c[nH]c2ccccc12)NC(=O)[C@@H](CC=C)CC(=O)N[C@@H](CO)Cc1ccccc1 |  | inconclusive: 20.6 µM [rising, partial curve, poor fit] |
| COc1ccc(C2=Nn3c(nnc3-c3cccnc3)SC2)cc1 |  | inconclusive: 23.1 µM [cytotoxic, partial curve] |
| Cc1ccc(Nc2nc(-c3ccc(S(=O)(=O)N4CCOCC4)cc3)cs2)cc1 |  | inconclusive: 12.6 µM [cytotoxic, partial curve, poor fit] |
| O=[N+]([O-])c1cc(-c2n(-c3ccccn3)c3ccccc3[n+]2-c2ccccn2)ccc1Cl |  | inconclusive: 13 µM [cytotoxic, partial curve, poor fit] |
| COc1cc(C(=O)Nc2cc(C)ccn2)ccc1OCC(=O)N1CCOCC1 |  | inconclusive: 20.6 µM [cytotoxic, single point] |
| Cc1noc(C)c1C(=O)N(CC(=O)Nc1ccc(Cl)c(C(F)(F)F)c1)Cc1ccco1 |  | inconclusive: 32.6 µM [cytotoxic, single point] |
| COC(=O)N/C(C)=C1/NC(=O)c2ccccc2C(c2ccccc2)N1 (centres undefined) | inactive: 0.573% |  |
| CC(CC(=O)Nc1ccc2c(c1)c(=O)n(C)n2Cc1cccc(C(F)(F)F)c1)C(F)(F)F (centres undefined) | inactive: -7.87% |  |
| Cc1ccc2nc(SCC(=O)Nc3cccc(S(=O)(=O)N(C)C)c3)[nH]c2c1 |  | inconclusive: 29.1 µM [cytotoxic, single point] |
| COc1ccc(C(C)C)cc1S(=O)(=O)N1CC(C)OC(C)C1 (centres undefined) |  | inconclusive: 10.3 µM [cytotoxic, partial curve] |
| O=C(c1ccco1)N1CCN(C(c2ccccc2Cl)c2nnnn2Cc2cccs2)CC1 (centres undefined) | inactive: -19.6% |  |
| CC1(C(=O)NS(=O)(=O)c2ccc(Cl)cc2)CCN1C(=O)c1ccccc1 (centres undefined) |  | inconclusive: 1.3 µM [rising, full curve] |
| Clc1ccc(-c2csc(Nc3ccccc3)[n+]2Cc2ccco2)c(Cl)c1 |  | inconclusive: 29.1 µM [cytotoxic, single point] |
| CN(Cc1cnn(Cc2ccccc2)c1)C(=O)c1cccc(S(=O)(=O)N2CCOCC2)c1 | inactive: -5.38% |  |
| COc1ccccc1-c1cc(NC(=O)COc2ccc(C)c(C)c2)n(-c2ccccc2)n1 | inactive: 8.77% |  |
| COc1ccc(C(=O)NCc2ccc3c(c2)OCO3)cc1S(=O)(=O)N(C)Cc1ccccc1 |  | active: 9.2 µM |
| Cc1ccc(Cl)cc1-n1ncc2c(N3CCC(C)CC3)ncnc21 | inactive: 5.13% |  |

| Structure (SMILES) | activity change, negative = cytotoxicity | Potency |
| --- | --- | --- |
| Cc1ccc(CNC(=O)CN2CCN(Cc3ccc(F)cc3)C2=O)cc1 | inactive: -11.6% |  |
| Cc1ccc(Nc2nc(NCCO)c3ccccc3n2)cc1C | inactive: 0% |  |
| Cc1cc2nc(-c3cccc(NC(=O)COc4ccc(Cl)c(C)c4)c3)oc2cc1C |  | inconclusive: 29.1 µM [rising, single point] |
| Cc1cccc(N(C)S(=O)(=O)c2c(C(=O)N3CCCCCC3)c(C)n(C)c2C)c1 | inactive: -15.5% |  |
| O=C(NCc1ccccc1)C1CCN(S(=O)(=O)c2ccc3[nH]c(=O)ccc3c2)CC1 |  | inconclusive: 6.51 µM [rising, full curve, poor fit] |
| CCOc1ccc2nc(NC(=O)CSc3nc(SC)ns3)sc2c1 |  | active: 23.1 µM |
| COc1ccc(C2C(C(=O)NCc3cccnc3)c3ccccc3C(=O)N2C)cc1OC (centres undefined) |  | inconclusive: 8.2 µM [rising, partial curve] |
| O=C(CNc1cccc(S(=O)(=O)N2CCCC2)c1)Nc1cccc(Br)c1 |  | inconclusive: 23.1 µM [cytotoxic, single point] |
| CCc1nc2ccc(C(=O)Nc3ccc4c(c3)OCC(=O)N4)cn2c1N(CC)Cc1cccc(Br)c1 | inactive: 0.576% |  |
| O=C(CCCCn1c(=S)[nH]c2ccsc2c1=O)NCc1ccc2c(c1)OCO2 |  | inconclusive: 20.6 µM [cytotoxic, single point] |
| Cc1ccc(CSc2ccc(S(=O)(=O)N3CCCC3)cn2)cc1 | inactive: -5.48% |  |
| CCOc1ccc(S(=O)(=O)c2cn(Cc3ccc(OC)cc3)c3ccc(F)cc3c2=O)cc1 | inactive: 7.8% |  |
| Cc1cccc(OCC(=O)Nc2cccc3nsnc23)c1 |  | inconclusive: 14.6 µM [cytotoxic, partial curve, poor fit] |
| O=C(NCCCN1CCc2ccccc2C1)Nc1ccc(Cl)cc1 |  | active: 14.6 µM |
| COc1ccc(S(=O)(=O)n2nc(OC(=O)c3ccc(C)cc3)cc2N)cc1 | inactive: 19% |  |
| Cc1ccc(C(=O)OCC(=O)c2cc(C)n(CC3CCCO3)c2C)cc1 (centres undefined) |  | inconclusive: 20.6 µM [cytotoxic, partial curve, poor fit] |
| O=c1cc(-c2ccc(O)c(O)c2)oc2c(C3O[C@H](CO)[C@@H](O)[C@H](O)[C@H]3O)c(O)cc(O)c12 (some centres undefined) |  | inconclusive: 29.1 µM [rising, single point] |
| COC(=O)c1cc2ccsc2n1Cc1nc(-c2ccc(Cl)cc2)oc1C |  | inconclusive: 29.1 µM [rising, single point] |
| Cc1ccccc1-c1nnc(SCc2ccccc2F)o1 |  | inconclusive: 23.1 µM [cytotoxic, partial curve] |
| CCN(CC)CCn1c(NS(=O)(=O)c2ccc(C)cc2)nc2ccccc21 |  | active: 20.6 µM |
| CCOC(=O)/C(C#N)=C\c1cccnc1 | inactive: -7.73% |  |
| CCCOc1ccc2ccccc2c1/C=N/n1cnnc1 |  | inconclusive: 23.1 µM [cytotoxic, partial curve, poor fit] |
| CCOC(=O)CC(NC(=O)CCc1c(C)nc2ncnn2c1C)c1ccc(OC(C)C)cc1 (centres undefined) |  | inconclusive: 14.6 µM [rising, partial curve, poor fit] |

| Structure (SMILES) | activity change, negative = cytotoxicity | Potency |
| --- | --- | --- |
| C[C@@H]1CN([C@H](C)CO)S(=O)(=O)c2ccc(Br)cc2O[C@@H]1CN(C)Cc1ccc(-c2ccccc2)cc1 | inactive: -6.64% |  |
| Cc1nn(C)c(Cl)c1CN1CCC(CO)(CCOc2ccccc2)CC1 |  | inconclusive: 16.4 µM [cytotoxic, partial curve] |
| Cc1ccc[n+](CC(=O)c2ccc(Cl)cc2)c1 |  | inconclusive: 18.4 µM [rising, single point] |
| COc1ccc(S(=O)(=O)N2CCOCC2)cc1C(=O)N(C)CCOc1ccc(Cl)cc1 |  | inconclusive: 29.1 µM [cytotoxic, single point] |
| O=C(c1noc2c1CCCC2)N1CCN(Cc2ccccc2)CC1 |  | inconclusive: 20.6 µM [cytotoxic, single point] |
| CC(C)c1ccc(NC(=O)CCNS(=O)(=O)c2ccc3c(c2)CCCC(=O)N3)cc1 | inactive: -1.62% |  |
| COc1ccc(C(=O)Cn2c(Br)nc3c2c(=O)n(C)c(=O)n3C)cc1OC |  | inconclusive: 13 µM [cytotoxic, partial curve] |
| CN1CCN(c2cc(N3CCc4ccccc4C3)c(F)cc2[N+](=O)[O-])CC1 |  | inconclusive: 16.4 µM [cytotoxic, single point] |
| Cc1ccc(CN2CC(N3CCN(C)CC3)CS2(=O)=O)cc1 (centres undefined) | inactive: 14.3% |  |
| O=C(NCCCN1CCCC1=O)c1ccc(NS(=O)(=O)c2ccc(F)cc2)cc1 |  | inconclusive: 29.1 µM [rising, single point] |
| O=C(O)c1ccc2c(c1)S(=O)(=O)c1cc(N3CCN(c4ncccn4)CC3)ccc1C2=O |  | inconclusive: 29.1 µM [rising, single point] |
| COc1ccccc1OCCCCOc1ccccc1C(C)=O |  | inconclusive: 18.4 µM [cytotoxic, single point] |
| Cc1c(C(=O)NC2=NCCS2)cccc1[N+](=O)[O-] |  | inconclusive: 0.517 µM [rising, partial curve] |
| COc1cccc(CN(C)C(=O)CNC(=O)c2ccc(-c3ccccc3)cc2)c1OC |  | inconclusive: 1.46 µM [cytotoxic, full curve, poor fit] |
| O=C(COC(=O)CCCOc1ccc(Cl)cc1Cl)NCc1ccc(F)cc1 |  | inconclusive: 29.1 µM [rising, single point] |
| Cc1cc(/C=N\NC(=O)CC(=O)NC2CCCCC2)c(C)n1-c1cccc(Cl)c1Cl |  | active: 23.1 µM |
| O=C(NNc1nc2c(F)cc(F)cc2s1)c1ccccc1 |  | inconclusive: 29.1 µM [cytotoxic, single point] |
| Cc1ccccc1-n1c(SCC(=O)N2CCN(c3ccccn3)CC2)nnc1N1CCOCC1 | inactive: 1.68% |  |
| CCCC1(C(=O)OCC)NC(c2ccc(OC)cc2OC)C2C(=O)N(c3ccccc3)C(=O)C21 (centres undefined) |  | inconclusive: 8.2 µM [cytotoxic, partial curve] |
| CCCCN(CC)C(=O)Cc1ccccc1OC |  | inconclusive: 25.9 µM [cytotoxic, partial curve, poor fit] |
| O=c1c2c([nH]c3ccccc13)CCCCC2 | inactive: -0.321% |  |
| Cc1occc1-c1nnc(SCC(=O)N(C)c2ccccc2)n1C |  | inconclusive: 20.6 µM [rising, single point] |
| COc1ccc(CNC(=O)c2ccc(CS(=O)(=O)Cc3ccccc3F)o2)cc1 |  | inconclusive: 18.4 µM [cytotoxic, partial curve] |

In the list so far, these have fluorine.

| Structure (SMILES) | activity change, negative = cytotoxicity | Potency |
| --- | --- | --- |
| COc1cc(OC)c2c(-c3cccc(-c4ccc(F)c(Cl)c4)c3)cc(=O)oc2c1 |  | inconclusive: 18.4 µM [cytotoxic, single point] |
| C=CCC[C@@H](Cc1ccc(F)cc1)C(=O)OC[C@H](Cc1c[nH]c2ccccc12)NC(=O)[C@@H](CC=C)CC(=O)N[C@@H](CO)Cc1ccccc1 |  | inconclusive: 20.6 µM [rising, partial curve, poor fit] |
| Cc1noc(C)c1C(=O)N(CC(=O)Nc1ccc(Cl)c(C(F)(F)F)c1)Cc1ccco1 |  | inconclusive: 32.6 µM [cytotoxic, single point] |
| CC(CC(=O)Nc1ccc2c(c1)c(=O)n(C)n2Cc1cccc(C(F)(F)F)c1)C(F)(F)F (centres undefined) | inactive: -7.87% |  |
| Cc1ccc(CNC(=O)CN2CCN(Cc3ccc(F)cc3)C2=O)cc1 | inactive: -11.6% |  |
| CCOc1ccc(S(=O)(=O)c2cn(Cc3ccc(OC)cc3)c3ccc(F)cc3c2=O)cc1 | inactive: 7.8% |  |
| Cc1ccccc1-c1nnc(SCc2ccccc2F)o1 |  | inconclusive: 23.1 µM [cytotoxic, partial curve] |
| CN1CCN(c2cc(N3CCc4ccccc4C3)c(F)cc2[N+](=O)[O-])CC1 |  | inconclusive: 16.4 µM [cytotoxic, single point] |
| O=C(NCCCN1CCCC1=O)c1ccc(NS(=O)(=O)c2ccc(F)cc2)cc1 |  | inconclusive: 29.1 µM [rising, single point] |
| O=C(COC(=O)CCCOc1ccc(Cl)cc1Cl)NCc1ccc(F)cc1 |  | inconclusive: 29.1 µM [rising, single point] |
| O=C(NNc1nc2c(F)cc(F)cc2s1)c1ccccc1 |  | inconclusive: 29.1 µM [cytotoxic, single point] |
| COc1ccc(CNC(=O)c2ccc(CS(=O)(=O)Cc3ccccc3F)o2)cc1 |  | inconclusive: 18.4 µM [cytotoxic, partial curve] |

— PubChem BioAssay AID1347076 (National Center for Advancing Translational Sciences (NCATS), 2019)
